Data as given in PubChem BioAssay AID1508588 (Peter MacCallum Cancer Centre, 2020)

- Purpose: 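Knock-downs boosting vemurafenib effects on melanoma cell growth or lactate release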 (primary screen)
- Cell system: human WM266.4 melanoma cells (BRAF V600 mutant)
- Reagents: siRNA pool against human genes, 40 nM
- Duration: 96 h from transfection to read-out
- Challenge: vemurafenib 300 nM (about IC25), added 48 h after transfection, for 48 h; comparison arm got DMSO vehicle only
- Measured: 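Cell gain (DAPI nuclei at end minus before drug, mean of two replicates) and medium lactate by absorbance per cell, both as ratio to non-targeting siRNA, also grouped into fold-change classes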
- Reading the numbers: cell gain with vemurafenib: higher = more cell gain than with non-targeting siRNA; lactate per cell with vemurafenib: higher = more lactate made per cell
- Hit rule: 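Enhancement is called by pairing each knock-down's vehicle-arm and drug-arm fold-change classes for viability or glycolysis; which class combinations qualify is not given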
- Calls: active = enhances vemurafenib effect; inactive = no enhancement seen
Shown is a random part of about 18,000 reagents. Of all reagents, 790 (4.4%) got an active call. 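Calls rest on a combination of fold-change classes in drug and vehicle arms, not all shown here.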 Entries without a mark were called inactive. The numbers tell different reagents against one gene apart. Reagent sequences are not shown.

The opening 5 records, ahead of the listing:
| gene symbol | reagent no. | cell gain with vemurafenib | lactate per cell with vemurafenib |
| --- | --- | --- | --- |
| TRPM5 (GeneID 29850) | 1 | 1.17 | 0.52 |
| SGPP1 (GeneID 81537) | 1 | 0.9 | 0.9 |
| DNALI1 (GeneID 7802) | 1 | 0.35 | 0.84 |
| ESS2 (GeneID 8220) | 1 | 0.24 (active) | 0.4 |
| PGM1 (GeneID 5236) | 1 | 0.79 | 0.56 |

Main list, from the first entry:
| gene symbol | reagent no. | cell gain with vemurafenib | lactate per cell with vemurafenib |
| --- | --- | --- | --- |
| TRPM5 (GeneID 29850) | 1 | 1.17 | 0.52 |
| SGPP1 (GeneID 81537) | 1 | 0.9 | 0.9 |
| DNALI1 (GeneID 7802) | 1 | 0.35 | 0.84 |
| ESS2 (GeneID 8220) | 1 | 0.24 (active) | 0.4 |
| PGM1 (GeneID 5236) | 1 | 0.79 | 0.56 |
| DUOX1 (GeneID 53905) | 1 | 0.42 | 1.12 |
| SLC1A4 (GeneID 6509) | 1 | 0.75 | 0.52 |
| TCEAL5 (GeneID 340543) | 1 | 0.29 | 0.71 |
| KRT84 (GeneID 3890) | 1 | 0.59 | 0.53 |
| DROSHA (GeneID 29102) | 1 | 0.54 | 0.92 |
| UGT1A4 (GeneID 54657) | 1 | 0.55 | 1.5 |
| AK9 (GeneID 221264) | 1 | 0.24 | 0.59 |
| AK9 (GeneID 221264) | 2 | 0.6 | 1.29 |
| AK9 (GeneID 221264) | 3 | 0.59 (active) | 0.06 |
| NIN (GeneID 51199) | 1 | 0.44 | 1.01 |
| STIM2 (GeneID 57620) | 1 | 0.42 | 1.46 |
| TSPAN14 (GeneID 81619) | 1 | 0.64 | 1.19 |
| ZNF688 (GeneID 146542) | 1 | 0.8 | 0.74 |
| H1-7 (GeneID 341567) | 1 | 0.76 | 0.69 |
| NAPRT (GeneID 93100) | 1 | 0.6 | 1 |
| POTEG (GeneID 404785) | 1 | 0.11 | 2.17 |
| ACOT7 (GeneID 11332) | 1 | 0.56 | 0.7 |
| NUTM2G (GeneID 441457) | 1 | 0.91 | 0.47 |
| VPS33B (GeneID 26276) | 1 | 0.76 (active) | 0.44 |
| ICMT (GeneID 23463) | 1 | 0.23 | 0.76 |
| GSX2 (GeneID 170825) | 1 | 0.72 | 0.84 |
| CMYA5 (GeneID 202333) | 1 | 0.82 | 1.23 |
| RIPK1 (GeneID 8737) | 1 | 0.76 | 1.45 |
| SRFBP1 (GeneID 153443) | 1 | 0.72 | 1.4 |
| NSMCE1 (GeneID 197370) | 1 | 1.26 | 1 |
| ARPP21 (GeneID 10777) | 1 | 1.07 | 0.8 |
| NECAB3 (GeneID 63941) | 1 | 1.06 | 1.01 |
| CCL28 (GeneID 56477) | 1 | 0.87 | 0.68 |
| CANT1 (GeneID 124583) | 1 | 1.08 | 0.84 |
| C2CD3 (GeneID 26005) | 1 | 0.71 | 0.73 |
| MAP6 (GeneID 4135) | 1 | 0.72 | 1.18 |
| ZMAT5 (GeneID 55954) | 1 | 0.38 | 1.06 |
| STPG3 (GeneID 441476) | 1 | 0.81 | 0.67 |
| HEATR1 (GeneID 55127) | 1 | 0.19 | 1.67 |
| VCF1 (GeneID 84923) | 1 | 0.49 | 1.08 |
| RPS17P16 (GeneID 402057) | 1 | 0.79 | 0.68 |
| CDAN1 (GeneID 146059) | 1 | 0.88 | 0.68 |
| CDHR4 (GeneID 389118) | 1 | -0.04 | 1.21 |
| HAVCR1 (GeneID 26762) | 1 | 0.67 | 1 |
| AMPD3 (GeneID 272) | 1 | 0.78 | 0.64 |
| GALNT9 (GeneID 50614) | 1 | 0.57 | 0.8 |
| NR2E1 (GeneID 7101) | 1 | 0.89 | 0.89 |
| OR52E4 (GeneID 390081) | 1 | -0.04 | 1.84 |
| POLE3 (GeneID 54107) | 1 | 0.13 (active) | 0.12 |
| ZNF575 (GeneID 284346) | 1 | 0.79 | 0.66 |
| RFESD (GeneID 317671) | 1 | 0.27 | 1.4 |
| CCR1 (GeneID 1230) | 1 | 0.52 (active) | 0.26 |
| SLC25A43 (GeneID 203427) | 1 | 0.4 | 0.57 |
| RALGPS1 (GeneID 9649) | 1 | 1.04 | 1.02 |
| APBB2 (GeneID 323) | 1 | 0.12 (active) | 0.46 |
| NPRL3 (GeneID 8131) | 1 | 0.48 | 0.73 |
| IARS2 (GeneID 55699) | 1 | 0.71 | 1.02 |
| NSDHL (GeneID 50814) | 1 | 0.56 | 0.4 |
| NAP1L4 (GeneID 4676) | 1 | 0.21 | 0.48 |
| NUP153 (GeneID 9972) | 1 | 0.65 | 0.88 |
| VPS16 (GeneID 64601) | 1 | 0.51 | 0.66 |
| CDK1 (GeneID 983) | 1 | -0.06 | 6.88 |
| TFAM (GeneID 7019) | 1 | 0.98 | 0.55 |
| ARL6IP4 (GeneID 51329) | 1 | 0.85 | 0.48 |
| GOLT1A (GeneID 127845) | 1 | 0.74 | 1.15 |
| AP1AR (GeneID 55435) | 1 | 0.56 | 1.31 |
| SUMO3 (GeneID 6612) | 1 | 0.67 | 0.8 |
| CEMIP2 (GeneID 23670) | 1 | 0.69 | 0.76 |
| SOX3 (GeneID 6658) | 1 | 0.07 | 0.82 |
| SRGAP3 (GeneID 9901) | 1 | 0.85 | 1.24 |
| ASXL2 (GeneID 55252) | 1 | 0.47 | 1.58 |
| ZMYND12 (GeneID 84217) | 1 | 0.2 | 0.78 |
| CHST7 (GeneID 56548) | 1 | 0.6 | 0.85 |
| VTI1A (GeneID 143187) | 1 | 0.46 | 1.25 |
| KLHL4 (GeneID 56062) | 1 | 0.74 | 0.7 |
| SETD1A (GeneID 9739) | 1 | 0.92 | 0.68 |
| CITED1 (GeneID 4435) | 1 | 0.54 | 0.74 |
| ARHGEF26 (GeneID 26084) | 1 | 0.74 | 0.84 |
| PHC2 (GeneID 1912) | 1 | 0.53 | 2 |
| PAXBP1 (GeneID 94104) | 1 | 0.65 | 0.72 |
| QSOX2 (GeneID 169714) | 1 | 0.66 | 0.34 |
| ZBTB44 (GeneID 29068) | 1 | 1.05 | 0.77 |
| MTTP (GeneID 4547) | 1 | 0.71 | 1.1 |
| EEF1B2 (GeneID 1933) | 1 | 0.97 | 0.64 |
| GPR50 (GeneID 9248) | 1 | 0.28 | 1.19 |
| FBXL8 (GeneID 55336) | 1 | 0.64 | 0.46 |
| FGG (GeneID 2266) | 1 | 0.47 | 1.12 |
| ZSWIM3 (GeneID 140831) | 1 | 0.68 | 0.81 |
| RINL (GeneID 126432) | 1 | 1 | 0.6 |
| IL5 (GeneID 3567) | 1 | 0.89 | 0.86 |
| TMEM67 (GeneID 91147) | 1 | 0.91 | 0.32 |
| GH1 (GeneID 2688) | 1 | 0.82 | 1.02 |
| NAT14 (GeneID 57106) | 1 | 1.1 | 0.44 |
| GRIK1 (GeneID 2897) | 1 | 0.49 | 0.39 |
| PRR11 (GeneID 55771) | 1 | 0.71 | 1.04 |
| FASTKD4 (GeneID 9238) | 1 | 0.49 | 1.16 |
| RO60 (GeneID 6738) | 1 | 0.82 | 0.41 |
| SGSM2 (GeneID 9905) | 1 | 0.92 | 1.46 |
| GSAP (GeneID 54103) | 1 | 1.08 | 0.68 |
| POLR3GL (GeneID 84265) | 1 | 0.93 | 0.46 |
| RAB42 (GeneID 115273) | 1 | 1.19 | 0.43 |
| HRAS (GeneID 3265) | 1 | 0.24 | 1.34 |
| TAFA1 (GeneID 407738) | 1 | 0.97 | 0.73 |
| USP9X (GeneID 8239) | 1 | 0.95 | 0.77 |
| SGK2 (GeneID 10110) | 1 | 0.92 | 1.32 |
| UBL5 (GeneID 59286) | 1 | -0.03 | 2.09 |
| POLD4 (GeneID 57804) | 1 | 0.24 | 1.09 |
